The chains behind the UniProt entries cited, without tags or fusion partners.
UniProt O00327: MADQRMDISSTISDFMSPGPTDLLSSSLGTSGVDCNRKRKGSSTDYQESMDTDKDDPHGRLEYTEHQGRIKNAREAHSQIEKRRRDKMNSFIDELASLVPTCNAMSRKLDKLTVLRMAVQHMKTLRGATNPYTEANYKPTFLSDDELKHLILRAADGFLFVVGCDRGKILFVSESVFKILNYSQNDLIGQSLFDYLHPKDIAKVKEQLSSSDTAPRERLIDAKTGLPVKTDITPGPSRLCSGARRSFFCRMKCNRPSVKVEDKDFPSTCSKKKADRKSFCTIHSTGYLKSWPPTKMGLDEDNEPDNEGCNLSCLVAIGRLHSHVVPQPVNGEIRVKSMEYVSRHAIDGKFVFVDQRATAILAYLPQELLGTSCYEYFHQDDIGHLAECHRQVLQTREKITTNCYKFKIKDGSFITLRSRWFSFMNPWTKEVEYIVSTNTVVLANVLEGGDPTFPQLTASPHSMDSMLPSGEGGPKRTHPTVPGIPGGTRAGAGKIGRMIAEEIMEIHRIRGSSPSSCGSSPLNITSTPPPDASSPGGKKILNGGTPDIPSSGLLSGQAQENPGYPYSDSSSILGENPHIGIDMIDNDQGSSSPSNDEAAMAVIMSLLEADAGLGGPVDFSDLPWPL
UniProt Q14739: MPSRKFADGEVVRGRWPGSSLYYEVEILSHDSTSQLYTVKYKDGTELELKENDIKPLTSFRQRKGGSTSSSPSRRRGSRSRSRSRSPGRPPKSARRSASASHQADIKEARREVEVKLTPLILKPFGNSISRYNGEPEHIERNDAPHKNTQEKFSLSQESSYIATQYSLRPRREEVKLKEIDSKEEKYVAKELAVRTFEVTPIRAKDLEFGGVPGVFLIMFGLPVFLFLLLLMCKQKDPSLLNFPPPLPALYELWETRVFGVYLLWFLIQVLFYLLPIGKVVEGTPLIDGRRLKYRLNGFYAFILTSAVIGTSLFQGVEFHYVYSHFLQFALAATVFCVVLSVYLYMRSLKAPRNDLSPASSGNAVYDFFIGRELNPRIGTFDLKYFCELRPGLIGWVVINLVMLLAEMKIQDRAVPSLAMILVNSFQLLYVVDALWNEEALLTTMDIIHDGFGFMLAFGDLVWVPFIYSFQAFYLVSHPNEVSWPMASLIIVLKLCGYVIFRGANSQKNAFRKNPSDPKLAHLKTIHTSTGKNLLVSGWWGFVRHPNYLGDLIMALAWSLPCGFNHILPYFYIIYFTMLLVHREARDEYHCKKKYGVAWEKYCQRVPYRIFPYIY
UniProt Q13263: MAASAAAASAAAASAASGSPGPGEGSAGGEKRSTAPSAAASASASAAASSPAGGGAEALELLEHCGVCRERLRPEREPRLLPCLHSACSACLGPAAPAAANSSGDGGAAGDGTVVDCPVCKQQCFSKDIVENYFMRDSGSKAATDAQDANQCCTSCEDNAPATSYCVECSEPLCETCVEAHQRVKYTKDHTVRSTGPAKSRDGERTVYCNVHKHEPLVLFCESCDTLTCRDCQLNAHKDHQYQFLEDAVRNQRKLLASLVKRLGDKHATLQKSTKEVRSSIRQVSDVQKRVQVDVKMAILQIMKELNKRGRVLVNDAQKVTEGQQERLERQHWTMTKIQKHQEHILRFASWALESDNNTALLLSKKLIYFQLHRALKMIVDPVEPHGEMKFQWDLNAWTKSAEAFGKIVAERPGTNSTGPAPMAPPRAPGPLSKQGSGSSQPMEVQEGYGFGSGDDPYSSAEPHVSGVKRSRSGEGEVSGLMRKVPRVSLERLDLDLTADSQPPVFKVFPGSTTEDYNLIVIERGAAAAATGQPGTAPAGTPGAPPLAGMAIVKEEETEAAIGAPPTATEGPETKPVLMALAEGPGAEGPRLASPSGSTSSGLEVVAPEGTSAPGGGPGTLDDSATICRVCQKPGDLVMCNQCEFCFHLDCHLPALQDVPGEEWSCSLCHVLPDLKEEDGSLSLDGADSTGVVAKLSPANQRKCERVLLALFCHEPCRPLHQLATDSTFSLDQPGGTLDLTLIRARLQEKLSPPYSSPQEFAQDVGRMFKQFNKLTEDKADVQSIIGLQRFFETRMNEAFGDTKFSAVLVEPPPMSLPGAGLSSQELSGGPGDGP

In PMC8027439:

T1: Flag-tagged CLOCK (full-length, wild type) (human) (UniProt O15516)
T1 sequence: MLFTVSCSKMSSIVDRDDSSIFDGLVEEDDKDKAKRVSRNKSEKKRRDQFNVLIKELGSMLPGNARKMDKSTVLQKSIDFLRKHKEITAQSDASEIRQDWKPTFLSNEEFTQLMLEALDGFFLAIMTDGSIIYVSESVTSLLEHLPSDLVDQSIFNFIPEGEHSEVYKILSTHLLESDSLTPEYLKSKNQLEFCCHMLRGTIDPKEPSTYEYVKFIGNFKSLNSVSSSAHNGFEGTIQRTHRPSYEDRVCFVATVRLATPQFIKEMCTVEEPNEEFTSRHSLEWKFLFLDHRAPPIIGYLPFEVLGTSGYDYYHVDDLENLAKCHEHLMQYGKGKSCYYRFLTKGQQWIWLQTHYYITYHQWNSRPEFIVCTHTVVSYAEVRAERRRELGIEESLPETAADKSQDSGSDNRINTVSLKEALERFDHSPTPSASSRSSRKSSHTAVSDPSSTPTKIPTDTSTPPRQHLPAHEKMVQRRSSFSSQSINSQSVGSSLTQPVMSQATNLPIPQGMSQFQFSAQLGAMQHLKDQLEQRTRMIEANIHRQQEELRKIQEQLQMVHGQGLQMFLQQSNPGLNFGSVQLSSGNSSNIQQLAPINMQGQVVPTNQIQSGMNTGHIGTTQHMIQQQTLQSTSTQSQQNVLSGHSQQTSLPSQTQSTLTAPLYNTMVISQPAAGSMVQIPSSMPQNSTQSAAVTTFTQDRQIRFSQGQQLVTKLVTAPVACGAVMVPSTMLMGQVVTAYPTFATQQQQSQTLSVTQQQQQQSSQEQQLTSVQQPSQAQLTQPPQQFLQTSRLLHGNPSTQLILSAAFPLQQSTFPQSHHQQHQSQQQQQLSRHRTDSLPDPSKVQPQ

B1: CIPC, circadian clock protein (protein, UniProt Q9C0C6 1-399)
chain: MERKNPSRESPRRLSAKVGKGTEMKKVARQLGMAAAESDKDSGFSDGSSECLSSAEQMESEDMLSALGWSREDRPRQNSKTAKNAFPTLSPMVVMKNVLVKQGSSSSQLQSWTVQPSFEVISAQPQLLFLHPPVPSPVSPCHTGEKKSDSRNYLPILNSYTKIAPHPGKRGLSLGPEEKGTSGVQKKICTERLGPSLSSSEPTKAGAVPSSPSTPAPPSAKLAEDSALQGVPSLVAGGSPQTLQPVSSSHVAKAPSLTFASPASPVCASDSTLHGLESNSPLSPLSANYSSPLWAAEHLCRSPDIFSEQRQSKHRRFQNTLVVLHKSGLLEITLKTKELIRQNQATQVELDQLKEQTQLFIEATKSRAPQAWAKLQASLTPGSSNTGSDLEAFSDHPAI

The molecules below were run against T1, Flag-tagged CLOCK (full-length, wild type) (human) (assay: affinity purification with mass spectrometry; Flag-tagged CLOCK expressed in HEK293T cells, immunoprecipitation with an anti-Flag antibody, gel bands digested with trypsin, nanoLC-MS/MS; Flag-luciferase as negative control).

binding	Molecule
binds	BMAL1, circadian clock protein (from UniProt O00327 1-626)
binds	LBR, nuclear lamina protein (from UniProt Q14739 1-615)
binds	KAP1, heterochromatin-associated protein (from UniProt Q13263 1-835)
binds	B1

No constants are given. Whether binding was seen depends on the method and setting. In cells and extracts the contact can be indirect. These calls come from enrichment with a bait or labelling near it, and not all partners need be listed. Where a sequence is shown, tags or fusion partners need not be part of it.
